The whole screen tested about 320,000 compounds, of which about 22,000 (6.9%) were called active. The shares of active, inactive and inconclusive entries below differ from those in the screen. Calls come from the whole dose curve; as a rule, active = well fitted inhibition curve with a large enough effect; inconclusive = small, poorly fitted or top-dose-only effect, or another doubt; inactive = no such curve, though single readings can be large or run the other way. Potencies of inconclusive entries are doubtful fits and often do not repeat.
Test: Primary qHTS for delayed death inhibitors of the malarial parasite plastid, 96 hour incubation
Conditions: P. falciparum luciferase reporter growth; series mostly up to 28.7 µM
Procedure, shortened: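 Two-generation exposure (96 h) targets delayed-death phenotype. Reporter parasites carrying integrated firefly luciferase, in red cells at 2% hematocrit and 0.05% parasitemia final, kept at 37 C, 5% CO2; luminescence loss indicates inhibition.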
Potency is the fitted concentration of half-maximal effect.

| SMILES | Potency |
| --- | --- |
| N=C(N)CCCOc1ccccc1-c1ccccc1 | inconclusive: 18.5 µM [inhibitor, single point] |
| CCc1cc(=O)oc2cc(OCC(=O)NCCCN3CCCC3=O)ccc12 | inconclusive: 11.7 µM [inhibitor, single point] |
| O=C(O)CCC(=O)Nc1ccc(SSc2ccc(NC(=O)CCC(=O)O)cc2)cc1 | inactive |
| COc1ccc(C(=O)c2ccccc2)cc1 | inconclusive: 11.7 µM [inhibitor, single point] |
| CN1CCN(C(=O)COc2ccc(S(=O)(=O)N(C)Cc3ccccc3)cc2)CC1 | inconclusive: 10.4 µM [inhibitor, single point] |
| CCc1nnc(N2C(=O)c3cccc4cccc(c34)C2=O)s1 | inconclusive: 18.5 µM [inhibitor, single point] |
| OCCSc1ncnc2c1oc1ccccc12 | inconclusive: 2.33 µM [inhibitor, full curve, poor fit] |
| CCOC(=O)c1c(NC(=O)CN2C(=O)NC3(CCCCCC3)C2=O)sc(C)c1-c1ccc(C)cc1 | inconclusive: 11.7 µM [inhibitor, single point] |
| CCc1ccc(NC(=O)CC2S/C(=N/N=C3CCCCCC3)NC2=O)cc1 (stereo not given) | inconclusive: 18.5 µM [inhibitor, single point] |
| CCOC(=O)C1CCN(C(=O)c2cnn3c(C)cc(C)nc23)CC1 | inconclusive: 14.7 µM [inhibitor, partial curve, poor fit] |
| CC(C)(C)c1cc(-c2ccco2)c(C#N)c(SCC#N)n1 | inconclusive: 0.185 µM [inhibitor, partial curve, poor fit] |
| Cn1cc(C(=O)Nc2ccccn2)c(=O)c2ccccc21 | inconclusive: 1.85 µM [inhibitor, full curve] |
| Nc1nnc(CSc2ccc(Cl)cc2)s1 | inconclusive: 0.0828 µM [inhibitor, full curve, poor fit] |
| Nc1ccc2nc(NC(=O)C3CCCCC3)sc2c1 | inactive |
| COc1cc(C2C3=C(CC(C)(C)CC3=O)Nc3c2c(=O)[nH]c(=O)n3Cc2ccccc2)ccc1O (stereo not given) | inactive |
| COc1cc(OC)c(NC(=O)CNC(=O)Cn2ccc3ccccc3c2=O)cc1Cl | inconclusive: 18.5 µM [inhibitor, single point] |
| Cc1ccc(Nc2nc(Nc3ccc(C)cc3)nc(SC3=NCCS3)n2)cc1 | active: 13.1 µM |
| OCCCNc1ncnc2sc(-c3ccccc3)cc12 | inactive |
| CCN1CCCC1CNC(=O)c1cc(NC(C)=O)c(N(C)C)cc1OC (stereo not given) | inconclusive: 18.5 µM [inhibitor, single point] |
| COC(=O)c1ccc(NC(=S)Nc2ccc3ccccc3c2)cc1 | inactive |
| COC(=O)c1sccc1S(=O)(=O)N1CCCC(N(C)CCc2ccccn2)C1 (stereo not given) | inconclusive: 10.4 µM [inhibitor, partial curve] |
| COc1cc(-c2nc3ccccn3c2/N=C/c2ccc(F)cc2)ccc1O | inconclusive: 16.5 µM [inhibitor, partial curve, poor fit] |
| Cc1cccc(OCC(=O)OC(C)C(=O)Nc2ccc(S(=O)(=O)N3CCCCC3)cc2)c1 (stereo not given) | inconclusive: 14.7 µM [inhibitor, single point] |
| COc1cc2nc(CSc3nc(-c4ccc(F)cc4)cs3)[nH]c(=O)c2cc1OC | inconclusive: 18.5 µM [inhibitor, single point] |

| SMILES | Potency |
| --- | --- |
| CS(=O)(=O)N(Cc1ccccc1)c1ccc(C(=O)N2CCc3ccccc3C2)cc1 | inactive |
| CC(=O)NC(CCS(C)(=O)=O)C(=O)Nc1cc(Cl)ccc1Cl (stereo not given) | inactive |
| Cc1cc(C(=O)COc2ccc3ccc(=O)oc3c2)c(C)n1C | inconclusive: 10.4 µM [inhibitor, single point] |
| COc1ccccc1-n1c(=S)[nH]c2c(sc(=S)n2-c2ccccc2C)c1=O | inactive |
| Cc1ccc(C2=NNC3(CCOC(C)(C)C3)S2)cc1 (stereo not given) | inconclusive: 8.28 µM [inhibitor, partial curve] |
| CCCCOc1cccc(C(=O)NNC(=S)NC2CCCCC2)c1 | inconclusive: 4.65 µM [inhibitor, single point] |
| CC(=O)c1cccc(NC(=O)CN(C)S(=O)(=O)c2ccc3c(c2)CCC(=O)N3)c1 | inconclusive: 9.28 µM [inhibitor, partial curve] |
| COCc1cc(Sc2ccc(OC)cc2)nc(-c2ccccc2)n1 | inconclusive: 18.5 µM [inhibitor, single point] |
| CSc1ccc(/C=C/C(=O)c2ccc(NC(=O)Cc3ccccc3)cc2)cc1 | inconclusive: 0.0047 µM [inhibitor, partial curve, poor fit] |
| COc1ccc(NC(=O)C2CCCN(S(=O)(=O)c3ccc4c(c3)oc(=O)n4C)C2)cc1OC (stereo not given) | inconclusive: 13.1 µM [inhibitor, partial curve] |
| CC1=CC(=C(C#N)C#N)C=C(C)N1CCN1CCN(C(=O)Nc2cccc(Cl)c2)CC1 | inconclusive: 6.57 µM [inhibitor, partial curve] |
| O=C(CCNC(=O)c1ccc(Br)cc1)Nc1ccccc1N1CCOCC1 | inconclusive: 18.5 µM [inhibitor, single point] |
| CCOc1ccccc1NC(=O)CCC(=O)Nc1nnc(C2CCCCC2)s1 | inconclusive: 9.28 µM [inhibitor, partial curve, poor fit] |
| O=C1CCC/C(=N\NC(=O)c2ccc(CSc3cccc4cccnc34)cc2)C1 | inconclusive: 8.28 µM [inhibitor, partial curve, poor fit] |
| Cc1ccc(-n2cnc3sc(C)c(C)c3c2=O)cc1 | inconclusive: 4.15 µM [inhibitor, partial curve] |
| CC(C)CCn1c(CN2CCN(Cc3ccccc3)CC2)nc2c1c(=O)n(C)c(=O)n2C | inconclusive: 11.7 µM [inhibitor, partial curve, poor fit] |
| C/C(=N\Nc1nc(C)cc(-c2ccccc2)n1)c1ccc(O)cc1 | inactive |
| COc1ccc(NC(=O)Cc2ccccc2F)cc1S(=O)(=O)N1CCCCC1 | inconclusive: 10.4 µM [inhibitor, single point] |
| CCOc1ccc(C(C)NC(=O)Cc2ccccc2F)cc1OCC (stereo not given) | active: 1.31 µM |
| COc1cc(NC(=O)c2cccc(C)c2)ccc1NC(=O)c1cc2ccccc2o1 | inactive |
| N#Cc1c(-c2ccccc2)cc2nc3ccccc3n2c1N | inconclusive: 1.04 µM [inhibitor, partial curve, poor fit] |
| CN(C)C(=O)c1ccccc1-c1ccccc1 | inconclusive: 1.65 µM [inhibitor, partial curve, poor fit] |
| CCCCNC(=O)[C@@H]1CCCN1S(=O)(=O)c1cccc2cccnc12 | inconclusive: 9.28 µM [inhibitor, single point] |
| O=C1NC(=S)N/C1=C/c1cccc2ccccc12 | inactive |

| SMILES | Potency |
| --- | --- |
| CN(C)S(=O)(=O)c1cccc(NC(=O)c2ccc(N3CCOCC3)c([N+](=O)[O-])c2)c1 | inconclusive: 11.7 µM [inhibitor, partial curve] |
| N#C/C(=C\c1cccnc1)c1ccccn1 | inconclusive: 5.86 µM [inhibitor, partial curve, poor fit] |
| COCCCNc1nc(SCc2ccccc2)nc2sc3c(c12)CCC3 | inconclusive: 18.5 µM [inhibitor, single point] |
| Cc1cccc(CCNC(=O)CCS(=O)(=O)c2cc3c(cc2C)NC(=O)CO3)c1 | inconclusive: 1.65 µM [inhibitor, full curve, poor fit] |
| Cc1ccc(Nc2nc(C)cc(C)c2C(N)=O)cc1 | inconclusive: 11.7 µM [inhibitor, single point] |
| c1cncc(CN=C2Nc3ccccc3CS2)c1 | inconclusive: 10.4 µM [inhibitor, partial curve, poor fit] |
| COc1cccc(N2CC(C)Cn3c2nc2c3c(=O)n(CCN3CCOCC3)c(=O)n2C)c1 (stereo not given) | inconclusive: 13.1 µM [inhibitor, single point] |
| COc1cc(CNCCCN2CCOCC2)cc(Cl)c1OCC(=O)NC(C)(C)C | inconclusive: 10.4 µM [inhibitor, partial curve, poor fit] |
| CCCc1nc2ccc(NC(=O)c3ccco3)cc2c(=O)n1Cc1ccc(Cl)cc1 | inconclusive: 0.294 µM [inhibitor, full curve, poor fit] |
| O=C(NCc1cc(F)cc(C(F)(F)F)c1)C1CCC(=O)N(C2CCCC2)C1 (stereo not given) | inactive |
| CCNC(=O)c1cc2ccccc2o1 | inactive |
| Cc1cc(N=NC(=O)c2ccccc2)ccc1O | inactive |
| CC(=O)Oc1ccc2c(C)c(CC(C)O)c(=O)oc2c1 (stereo not given) | inconclusive: 14.7 µM [inhibitor, partial curve] |
| O=C(OCCCc1cc2ccccc2c(=O)o1)c1ccc2c(c1)OCO2 | inactive |
| CC1CCCC/C1=N\NC(=S)Nc1cccnc1 (stereo not given) | inactive |
| O=C1c2ccccc2C(Nc2ccc(S(=O)(=O)N3CCOCC3)cc2)N1Cc1ccco1 (stereo not given) | active: 8.28 µM |
| CCOC(=O)N1CCN(S(=O)(=O)c2ccc(C(=O)Nc3ccc4c(c3)C(=O)NC4=O)cc2)CC1 | inactive |
| N#Cc1c(/N=C/c2cc3ccccc3s2)sc2c1CCC2 | inactive |
| COc1cccc(NC(=O)C(NCC(C)(C)CN(C)C)c2ccccc2)c1 (stereo not given) | inconclusive: 18.5 µM [inhibitor, single point] |
| CCCCCC(=O)OC(CN1CCCCC1)CN1CCCC1=O (stereo not given) | active: 10.4 µM |
| CC(C)(C)c1cc(C(=O)NNC(=O)Nc2cccc(Cl)c2)n(Cc2ccccc2)n1 | active: 9.28 µM |
| Cc1cccc(-c2nc(CS(=O)CC(=O)NCc3ccco3)c(C)o2)c1 (stereo not given) | inconclusive: 18.5 µM [inhibitor, single point] |

Some of the entries above, set out differently:
CC(C)(C)c1cc(-c2ccco2)c(C#N)c(SCC#N)n1
  Potency: inconclusive: 0.185 µM [inhibitor, partial curve, poor fit]
Cn1cc(C(=O)Nc2ccccn2)c(=O)c2ccccc21
  Potency: inconclusive: 1.85 µM [inhibitor, full curve]
Nc1nnc(CSc2ccc(Cl)cc2)s1
  Potency: inconclusive: 0.0828 µM [inhibitor, full curve, poor fit]
Nc1ccc2nc(NC(=O)C3CCCCC3)sc2c1
  Potency: inactive
